{"source": "PubChem BioAssay AID652272 (Drosophila RNAi Screening Center, 2013)", "test": "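Finding fly genes that regulate Hedgehog signal transduction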 (primary screen)", "system": "Drosophila clone 8 (Cl8) cells", "reagents": "long dsRNA against Drosophila genes", "measured": "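Plate reader light from a firefly reporter under a ptc promoter fragment that responds to Hedgehog, with Renilla light as transfection reference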", "scale": "firefly Hh reporter signal: higher = more ptc reporter light; Renilla reference signal: higher = more Renilla control light", "hit rule": "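Called a hit if the two-replicate mean z-score lies below -2 or above +3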", "meaning of the calls": "active = hit: reporter lowered or raised; inactive = not a hit", "note": "In all, the deposit lists about 21,000 reagents; shown is an unselected part of those with a known target gene and a result. Over the whole deposit, 503 (2.4%) are marked active. 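Raw plate light values, not normalised; calls rest on replicate z-scores that were not deposited; hits include reporter decreases as well as increases.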 Not stated in the record: the amount of reagent, the time to read-out."}
{"gene": "CG14983", "firefly Hh reporter signal, replicate 1": 90117, "firefly Hh reporter signal, replicate 2": 40497, "Renilla reference signal, replicate 1": 2304, "Renilla reference signal, replicate 2": 3588, "activity call": "inactive"}
{"gene": "Lcp65Ae", "firefly Hh reporter signal, replicate 1": 52934, "firefly Hh reporter signal, replicate 2": 38896, "Renilla reference signal, replicate 1": 5440, "Renilla reference signal, replicate 2": 2985, "activity call": "inactive"}
{"gene": "CG33500", "firefly Hh reporter signal, replicate 1": 96496, "firefly Hh reporter signal, replicate 2": 2.06e5, "Renilla reference signal, replicate 1": 3640, "Renilla reference signal, replicate 2": 12186, "activity call": "active"}
{"gene": "cass", "firefly Hh reporter signal, replicate 1": 45964, "firefly Hh reporter signal, replicate 2": 24673, "Renilla reference signal, replicate 1": 1938, "Renilla reference signal, replicate 2": 1155, "activity call": "inactive"}
{"gene": "CG14000", "firefly Hh reporter signal, replicate 1": 94187, "firefly Hh reporter signal, replicate 2": 31613, "Renilla reference signal, replicate 1": 2554, "Renilla reference signal, replicate 2": 3508, "activity call": "inactive"}
{"gene": "CG34008", "firefly Hh reporter signal, replicate 1": 55127, "firefly Hh reporter signal, replicate 2": 2.16e5, "Renilla reference signal, replicate 1": 12000, "Renilla reference signal, replicate 2": 5204, "activity call": "inactive"}
{"gene": "CG31245", "firefly Hh reporter signal, replicate 1": 7.02e5, "firefly Hh reporter signal, replicate 2": 1.10e5, "Renilla reference signal, replicate 1": 36951, "Renilla reference signal, replicate 2": 2583, "activity call": "inactive"}
{"gene": "Cpr49Ac", "firefly Hh reporter signal, replicate 1": 1.08e5, "firefly Hh reporter signal, replicate 2": 98657, "Renilla reference signal, replicate 1": 4560, "Renilla reference signal, replicate 2": 3643, "activity call": "inactive"}
{"gene": "Pu", "firefly Hh reporter signal, replicate 1": 1.00e5, "firefly Hh reporter signal, replicate 2": 66949, "Renilla reference signal, replicate 1": 3777, "Renilla reference signal, replicate 2": 2684, "activity call": "inactive"}
{"gene": "CG10650", "firefly Hh reporter signal, replicate 1": 64344, "firefly Hh reporter signal, replicate 2": 97040, "Renilla reference signal, replicate 1": 2823, "Renilla reference signal, replicate 2": 4065, "activity call": "inactive"}
{"gene": "l(3)mbn", "firefly Hh reporter signal, replicate 1": 1.59e5, "firefly Hh reporter signal, replicate 2": 2.46e5, "Renilla reference signal, replicate 1": 5012, "Renilla reference signal, replicate 2": 11449, "activity call": "inactive"}
{"gene": "en", "firefly Hh reporter signal, replicate 1": 87632, "firefly Hh reporter signal, replicate 2": 43835, "Renilla reference signal, replicate 1": 2503, "Renilla reference signal, replicate 2": 3396, "activity call": "inactive"}
{"gene": "CG1951", "firefly Hh reporter signal, replicate 1": 1.02e5, "firefly Hh reporter signal, replicate 2": 1.25e5, "Renilla reference signal, replicate 1": 1576, "Renilla reference signal, replicate 2": 3272, "activity call": "inactive"}
{"gene": "CG14984", "firefly Hh reporter signal, replicate 1": 78427, "firefly Hh reporter signal, replicate 2": 34736, "Renilla reference signal, replicate 1": 1895, "Renilla reference signal, replicate 2": 3040, "activity call": "inactive"}

Part of the list above, reformatted:
gene | firefly Hh reporter signal, replicate 1 | firefly Hh reporter signal, replicate 2 | Renilla reference signal, replicate 1 | Renilla reference signal, replicate 2 | activity call
en | 87632 | 43835 | 2503 | 3396 | inactive
CG1951 | 1.02e5 | 1.25e5 | 1576 | 3272 | inactive
